Source: patent US20130115220A1, “METHOD FOR PREVENTION OR TREATMENT OF METABOLIC SYNDROME” (DAINIPPON SUMITOMO PHARMA CO., LTD., priority 2010, published 2013)
Results are given in words; binding and its absence hold for the method and conditions named. Binding seen in cells or lysates may run through a third protein. Some binding calls cover weakened binding; strength is not graded here. Sequences can lack the tags named with a protein.

Assays:
[1] = target: endogenous fatty acid synthase (FAS) of mouse adipose tissue and 3T3-L1 adipocytes (mouse) (UniProt P19096); experiment: co-immunoprecipitation with anti-HA antibody from adipose tissue; Western blot (legend of FIG. 24)
[2] = target: full-length FAS labeled with FLAG-tag (UniProt P19096); experiment: co-immunoprecipitation with anti-Flag or anti-HA antibody in HEK 293T cells (legend of FIG. 25)
[3] = target: T1, dehydrase (DH) domain of FAS labeled with Flag at the N-terminal (UniProt P19096); experiment: co-immunoprecipitation of Flag-tagged FAS domain with AIM-HA in HEK293T cells
T1 sequence (looked up): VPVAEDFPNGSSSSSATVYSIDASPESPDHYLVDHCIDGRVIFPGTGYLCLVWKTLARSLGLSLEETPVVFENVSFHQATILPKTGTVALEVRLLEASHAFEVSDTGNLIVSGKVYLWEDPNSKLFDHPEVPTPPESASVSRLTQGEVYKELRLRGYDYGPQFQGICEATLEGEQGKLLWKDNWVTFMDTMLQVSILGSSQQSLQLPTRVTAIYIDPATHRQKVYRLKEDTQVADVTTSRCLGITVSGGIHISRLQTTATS

[4] = target: T2, thioesterase (TE) domain of FAS labeled with Flag at the N-terminal (UniProt P19096); experiment: as above
T2 sequence (looked up): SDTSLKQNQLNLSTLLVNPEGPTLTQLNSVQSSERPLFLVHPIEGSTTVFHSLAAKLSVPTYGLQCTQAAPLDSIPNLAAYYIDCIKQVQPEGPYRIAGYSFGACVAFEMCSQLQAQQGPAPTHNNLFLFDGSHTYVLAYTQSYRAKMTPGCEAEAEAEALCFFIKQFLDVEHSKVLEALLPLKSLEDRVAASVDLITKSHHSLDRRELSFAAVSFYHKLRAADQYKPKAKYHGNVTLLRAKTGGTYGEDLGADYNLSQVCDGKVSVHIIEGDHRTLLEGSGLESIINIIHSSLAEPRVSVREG

[5] = target: endogenous fatty acid synthase (FAS) of mouse adipose tissue and 3T3-L1 adipocytes (mouse) (UniProt P19096); experiment: co-immunoprecipitation with anti-HA antibody from adipose tissue of AIM-/- mice injected with rAIM-HA; Western blot for FAS
[6] = target: full-length FAS labeled with FLAG-tag (UniProt P19096); experiment: co-immunoprecipitation with anti-Flag or anti-HA antibody, both co-expressed in HEK 293T cells

Measured: binding

B1: recombinant AIM protein (rAIM) of mouse labeled with HA-tag (ligand, not shown: small tags and cut ends)
chain: ESPTKVQLVGGAHRCEGRVEVEHNGQWGTVCDDGWDRRDVAVVCRELNCGAVIQTPRGASYQPPASEQRVLIQGVDCNGTEDTLAQCELNYYVFDCSHEEDAGAQCENPDSDLLFIPEDVRLVDGPGHCQGRVEVLHQSQWSTVCKAGWNLQVSKVVCRQLGCGRALLTYGSCNKNTQGKGPIWMGKMSCSGQEANLRSCLLSRLENNCTHGEDTWMECEDPFELKLVGGDTPCSGRLEVLHKGSWGSVCDDNWGEKEDQVVCKQLGCGKSLHPSPKTRKIYGPGAGRIWLDDVNCSGKEQSLEFCRHRLWGYHDCTHKEDVEVICTDFDV
binds: all assays above
